Laboratory results as given in patent US20070275935A1, “Estratriene Derivatives” (priority 2003, published 2007).

Key:
[1] = tested on: bleomycin-induced fibrosis in C57BL6 female mice; experiment: Bleomycin model of pulmonary fibrosis in mice; assay type: in vivo; settings: 4NO 50 mg/kg/day i.p., listed as 4NO
[2] = tested on: LPS-induced inflammation in female Balb/c mice; experiment: LPS-induced pulmonary inflammation in mice; settings: BALF zymography; 150 mg/kg i.p. 2 hours before LPS 1 μg, 24 hours; n = 6; LPS alone 0.46 ± 0.10; listed as 4NO, 150 mg/kg

COc1cc2c(cc1O)/C(=N/OCc1ccc([N+](=O)[O-])cc1)C[C@@H]1[C@@H]2CC[C@]2(C)[C@@H](O)CC[C@@H]12
BALF cell # ([1]; n = 5-6, bleomycin alone 11463 ± 2130, control 3926 ± 881): increased significantly in mice treated with vehicle/bleomycin, but not in those treated with bleomycin/4NO; also recorded: 8356 ± 1434 | Resistance ([1]; n = 11-12, bleomycin alone 0.50 ± 0.03, control 0.42 ± 0.01): increased significantly in mice treated with vehicle/bleomycin, but not in those treated with bleomycin/4NO; also recorded: 0.45 ± 0.01 cmH2O/ml/s | Proliferation Mesenchymal ([1]; BrdU positive nuclei as percentage of total nuclei, major airway, n = 6, bleomycin alone 10.16 ± 1.969): selectively attenuates and 6.065 ± 1.223 | Tissue area (%) ([1]; percentage of grid points falling on tissue, n = 6, bleomycin alone 44.4 ± 2.3): increased in bleomycin/vehicle mice, but not in those treated with bleomycin/4NO; also recorded: 35.0 ± 1.7% | Active MMP-9 [2]: increased significantly in LPS/vehicle treated animals but not in those pretreated with 4NO or CP-DM-4-35; also recorded: 0.32 ± 0.08 Arbitrary units

“Also recorded” adds a separate entry of the source. Not every entry of the source has a single result; some have several. The list is limited to them. An entry can have further records. Values given together differ for a reason that is not stated; they may come from other doses, times, organisms or constructs than stated.
